Measured values reported in article PMC7819943, “Rice protein-binding microarrays: a tool to detect cis-acting elements near promoter regions in rice”.
The other results are listed elsewhere or left out.

Chains of the proteins cited; added tags and fusions are not shown.
UniProt Q0JBA9, entry or part of it: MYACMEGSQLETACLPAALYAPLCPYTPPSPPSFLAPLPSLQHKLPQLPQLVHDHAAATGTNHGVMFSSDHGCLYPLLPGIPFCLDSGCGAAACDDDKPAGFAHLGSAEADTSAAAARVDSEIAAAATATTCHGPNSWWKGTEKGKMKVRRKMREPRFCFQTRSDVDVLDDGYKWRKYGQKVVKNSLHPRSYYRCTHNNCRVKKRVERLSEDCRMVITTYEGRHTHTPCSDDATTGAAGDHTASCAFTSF

Target: OsWRKY34 (Oryza sativa, UniProt Q0JBA9 1-250)
Experiment: protein-binding microarray (RPBM); PBS, 2% BSA, 51.3 ng/ul salmon testes DNA, 50 uM zinc acetate, 200 nM TF, 25 C, 1 h; high values mean tight binding
Details: protein: recombinant; tags: N-terminal polyhistidine and DsRed monomer fusion (pET32a); label: CyDye5-dUTP incorporated in the synthesized complementary strand; 3' TTTTT single-stranded linker to array surface; dsDNA, one strand shown
Outline: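 Ni–NTA purification followed expression in E. coli BL21-CodonPlus of transcription factors fused N-terminally to a polyhistidine tag and DsRed. At 200 nM in PBS with 2% BSA, salmon testes DNA and 50 µM zinc acetate, the protein was incubated for 1 h at 25 °C with a custom Agilent array that had been primer-extended with Cy5-dUTP and blocked with 2% BSA. After washing, the array was read on an Axon 4000B scanner. The binding signal is per-feature fluorescence intensity in arbitrary units.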

| Sequence | binding signal |
| --- | --- |
| CTGCTCAGCGAAAGTACGTACCTACGAGTATCACGTTCTCCGGAGTCACCTAGTGCAG | 8160 fluorescence intensity (a.u.) |
| TACTGCCATTTTTTCAGTTTTCACACCTACTTCTATTCCTCGGAGTCACCTAGTGCAG | 10700 fluorescence intensity (a.u.) |
| GCTTTCCATGATTCCCCGGAGTTAAGTCATTGTCACAAGTCGGAGTCACCTAGTGCAG | 10100 fluorescence intensity (a.u.) |
| CCTCACACTCTGGCACACCTTCTTCCTTTTCTTCACTTGCCGGAGTCACCTAGTGCAG | 12900 fluorescence intensity (a.u.) |
| ACACAGACGACGCAGCATCAGCAACACACACACACACCGACGGAGTCACCTAGTGCAG | 8220 fluorescence intensity (a.u.) |
| AGATCCAATGACGCGACGCCGCAACCGAAATGGATTCATCCGGAGTCACCTAGTGCAG | 8360 fluorescence intensity (a.u.) |
| AGTTTTGCTATTATGCCACCGCCGCCACGCTTTTGCTGATCGGAGTCACCTAGTGCAG | 9500 fluorescence intensity (a.u.) |
| GTGAGGGCTAGGGTTGGCAACCCCATCTTGGCATATGCTTCGGAGTCACCTAGTGCAG | 9170 fluorescence intensity (a.u.) |
| GAAACACCGGAGGGAGGGTGGGCGACGAGGAGGAGGAAAACGGAGTCACCTAGTGCAG | 8440 fluorescence intensity (a.u.) |
| AATCCGACCTGCTGGATCCGCACTGTATTTTTTTTCACCTCGGAGTCACCTAGTGCAG | 10200 fluorescence intensity (a.u.) |
| CTTTTATTTCCTATCTTGCATTTCCCATCTCCATCCTCCCCGGAGTCACCTAGTGCAG | 8090 fluorescence intensity (a.u.) |
| TGCATGTAGCATTAGGGGTTGGTTTGTTTTGAGGCCTATACGGAGTCACCTAGTGCAG | 11400 fluorescence intensity (a.u.) |
| GACAATCCCCGATCCGATCGCCGCGCTCCTCTCCTCTACCCGGAGTCACCTAGTGCAG | 8280 fluorescence intensity (a.u.) |
| TGGCTTTGTTGAGTGTAGGTAAGGATGAACTTGATTGCGACGGAGTCACCTAGTGCAG | 8440 fluorescence intensity (a.u.) |
| TATCCCTCTGTTGGTAGTTATTTTTATTGTTGCACTTATCCGGAGTCACCTAGTGCAG | 8570 fluorescence intensity (a.u.) |
| CTAATACTTAATTAATCATGCGTTAATTCATTGTTCTGTTCGGAGTCACCTAGTGCAG | 8830 fluorescence intensity (a.u.) |
| TGGAGTTGATTTGAGGTTTTTTTATCGAAATTTATTTTTTCGGAGTCACCTAGTGCAG | 10500 fluorescence intensity (a.u.) |
| TAATATTTGGTCCCACCTGTCATACACACGTTATGTCTTGCGGAGTCACCTAGTGCAG | 8050 fluorescence intensity (a.u.) |
| ACAATCCGGTTGTTGTGGTCTATCGCTTACCAACTCCAAACGGAGTCACCTAGTGCAG | 8720 fluorescence intensity (a.u.) |
| TTCGTCATCTCGCTGCAGCGGAGCCGCTCCGCGTCGCCGTCGGAGTCACCTAGTGCAG | 8730 fluorescence intensity (a.u.) |
| TTGTGGTCCTGTCGTCATCCTGTGGAGTTGTGGTGAGTGTCGGAGTCACCTAGTGCAG | 9740 fluorescence intensity (a.u.) |

| Sequence | binding signal |
| --- | --- |
| TCTGTAGTATTTTTTTACCCTGTTTTTAGCTGCATTCTGCCGGAGTCACCTAGTGCAG | 9110 fluorescence intensity (a.u.) |
| TTGTAACCACTCATCCATCCTACTCCTTCTAACCAAACAACGGAGTCACCTAGTGCAG | 8600 fluorescence intensity (a.u.) |
| CCTCTTCGAACTTTGTGCTTGACTGTATTAGTGGAAGAGTCGGAGTCACCTAGTGCAG | 8360 fluorescence intensity (a.u.) |
| ATGCATATACGACGTTCGAGTTCCTTGTTCCTTGTAAACACGGAGTCACCTAGTGCAG | 8710 fluorescence intensity (a.u.) |
| TTAGTTTATCCACTATCATCACCCTATCCACTTCACTTTTCGGAGTCACCTAGTGCAG | 11100 fluorescence intensity (a.u.) |
| ACATGTATTTTTTTCCCTAACTCTTCTGCAATACTTTACTCGGAGTCACCTAGTGCAG | 8350 fluorescence intensity (a.u.) |
| CATTGGATCATACATCAAGATTTACATTCCTTTATACCTACGGAGTCACCTAGTGCAG | 13900 fluorescence intensity (a.u.) |
| CATGCATCATTATACTAGTCGTCGTCATATAAATAGCGGACGGAGTCACCTAGTGCAG | 8380 fluorescence intensity (a.u.) |
| ATTGGTTGCTGCTCTCTCTTCTTGGCGTTTGTTTCCTATGCGGAGTCACCTAGTGCAG | 12400 fluorescence intensity (a.u.) |
| GGTGGTGTGACATGACATTGTTTTTCAGGTGAGAGCTTGACGGAGTCACCTAGTGCAG | 11700 fluorescence intensity (a.u.) |
| ATGGTTTTTTTTCCCTAGCTAAAAGTTATTTTTGGTTGCTCGGAGTCACCTAGTGCAG | 8990 fluorescence intensity (a.u.) |
| CTACGCAGCCGTCGCCGTGCCTTCCTCGTCCTCTACCGGCCGGAGTCACCTAGTGCAG | 8140 fluorescence intensity (a.u.) |
| CTCGTTGGGACTATGGACCTGTTCACTTTATAGCTATTTTCGGAGTCACCTAGTGCAG | 8450 fluorescence intensity (a.u.) |
| TTTTGGGTTGATATGTTGCTGAATTCTGATTTTTTTATTACGGAGTCACCTAGTGCAG | 8930 fluorescence intensity (a.u.) |
| GTCCACTGCAGTGACCAATGTTCATTTACTAGTTATTGGGCGGAGTCACCTAGTGCAG | 8850 fluorescence intensity (a.u.) |
| TCTGTTATTCTACTTGTGCTTCTTCGGTTTTTATAAATTGCGGAGTCACCTAGTGCAG | 8100 fluorescence intensity (a.u.) |
| TAAGAATGAAGTCATCAAAGTTACATCTTATTGACTTTTTCGGAGTCACCTAGTGCAG | 8680 fluorescence intensity (a.u.) |
| GCTCCTTTAATTTGAACCAACCTTTCCGCTATAAAATCACCGGAGTCACCTAGTGCAG | 9520 fluorescence intensity (a.u.) |
| CCCCACATCCGTTGCGCCTTGCATCTACTCTGTGCCAATCCGGAGTCACCTAGTGCAG | 13200 fluorescence intensity (a.u.) |
| AGTGACATTTTCCTTGTGTTTTCCCCAGAAATGTGTTTCCCGGAGTCACCTAGTGCAG | 8720 fluorescence intensity (a.u.) |
| ACAGCCCAGCCTACAGCTTCAAATTACGGAATTTCAGTATCGGAGTCACCTAGTGCAG | 8910 fluorescence intensity (a.u.) |

At a glance, part of the list above.

| Sequence | binding signal |
| --- | --- |
| ACATGTATTTTTTTCCCTAACTCTTCTGCAATACTTTACTCGGAGTCACCTAGTGCAG | 8350 fluorescence intensity (a.u.) |
| CATTGGATCATACATCAAGATTTACATTCCTTTATACCTACGGAGTCACCTAGTGCAG | 13900 fluorescence intensity (a.u.) |
| CATGCATCATTATACTAGTCGTCGTCATATAAATAGCGGACGGAGTCACCTAGTGCAG | 8380 fluorescence intensity (a.u.) |
| ATTGGTTGCTGCTCTCTCTTCTTGGCGTTTGTTTCCTATGCGGAGTCACCTAGTGCAG | 12400 fluorescence intensity (a.u.) |
| GGTGGTGTGACATGACATTGTTTTTCAGGTGAGAGCTTGACGGAGTCACCTAGTGCAG | 11700 fluorescence intensity (a.u.) |
| ATGGTTTTTTTTCCCTAGCTAAAAGTTATTTTTGGTTGCTCGGAGTCACCTAGTGCAG | 8990 fluorescence intensity (a.u.) |
| CTACGCAGCCGTCGCCGTGCCTTCCTCGTCCTCTACCGGCCGGAGTCACCTAGTGCAG | 8140 fluorescence intensity (a.u.) |
| CTCGTTGGGACTATGGACCTGTTCACTTTATAGCTATTTTCGGAGTCACCTAGTGCAG | 8450 fluorescence intensity (a.u.) |
| TTTTGGGTTGATATGTTGCTGAATTCTGATTTTTTTATTACGGAGTCACCTAGTGCAG | 8930 fluorescence intensity (a.u.) |
| GTCCACTGCAGTGACCAATGTTCATTTACTAGTTATTGGGCGGAGTCACCTAGTGCAG | 8850 fluorescence intensity (a.u.) |
| TCTGTTATTCTACTTGTGCTTCTTCGGTTTTTATAAATTGCGGAGTCACCTAGTGCAG | 8100 fluorescence intensity (a.u.) |
